Experimental findings from article PMC9798977 are described below.

By UniProt entry, the sequences of proteins in these tests, tags left out.
UniProt P83916: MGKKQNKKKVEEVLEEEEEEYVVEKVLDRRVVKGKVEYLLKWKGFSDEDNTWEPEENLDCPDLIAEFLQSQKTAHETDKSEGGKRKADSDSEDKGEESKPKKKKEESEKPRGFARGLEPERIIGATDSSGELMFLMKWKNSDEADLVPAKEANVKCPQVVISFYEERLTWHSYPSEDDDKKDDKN
UniProt Q9H5I1: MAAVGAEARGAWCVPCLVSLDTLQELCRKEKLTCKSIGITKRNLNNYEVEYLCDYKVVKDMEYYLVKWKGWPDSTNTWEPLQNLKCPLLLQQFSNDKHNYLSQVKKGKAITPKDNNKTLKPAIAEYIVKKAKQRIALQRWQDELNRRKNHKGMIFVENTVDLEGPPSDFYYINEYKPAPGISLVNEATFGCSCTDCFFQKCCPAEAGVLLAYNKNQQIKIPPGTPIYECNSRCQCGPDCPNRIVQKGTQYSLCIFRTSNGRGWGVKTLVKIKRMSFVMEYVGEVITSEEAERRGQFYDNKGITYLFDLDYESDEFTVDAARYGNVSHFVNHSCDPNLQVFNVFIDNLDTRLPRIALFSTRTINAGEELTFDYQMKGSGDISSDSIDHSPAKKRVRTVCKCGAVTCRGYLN

This test concerns the target FLAG-CBX1 (wild type) (human) (UniProt P83916). Briefly: co-IP; anti-FLAG immunoprecipitation from lysates of SUNE1, HONE1 or HK1 cells expressing FLAG-CBX1, overnight at 4 °C, Protein A/G magnetic beads, western blot; anti-IgG as control; also after treatment of the cells with DMSO, TBB (75 x 10^-6 M, 6 h) or hesperadin (500 x 10^-9 M, 1 h). Background: Immunoblotting shows a protein as a band on a membrane.

No constants are given. Whether binding was seen depends on the method and setting. Binding seen in cells or lysates may run through a third protein. Some binding calls cover weakened binding; strength is not graded here.

For “SUV39H2 (from UniProt Q9H5I1 1-410) (enzyme)”, the binding result is reported as “binds”.

B1: SUV39H1 (enzyme, UniProt O43463 1-412)
chain: MAENLKGCSVCCKSSWNQLQDLCRLAKLSCPALGISKRNLYDFEVEYLCDYKKIREQEYYLVKWRGYPDSESTWEPRQNLKCVRILKQFHKDLERELLRRHHRSKTPRHLDPSLANYLVQKAKQRRALRRWEQELNAKRSHLGRITVENEVDLDGPPRAFVYINEYRVGEGITLNQVAVGCECQDCLWAPTGGCCPGASLHKFAYNDQGQVRLRAGLPIYECNSRCRCGYDCPNRVVQKGIRYDLCIFRTDDGRGWGVRTLEKIRKNSFVMEYVGEIITSEEAERRGQIYDRQGATYLFDLDYVEDVYTVDAAYYGNISHFVNHSCDPNLQVYNVFIDNLDERLPRIAFFATRTIRAGEELTFDYNMQVDPVDMESTRMDSNFGLAGLPGSPKKRVRIECKCGTESCRKYLF
Consider B1, for which the binding result is “binds”.
